Data as given in PubChem BioAssay AID720505 (Drosophila RNAi Screening Center, 2013).
In all, the deposit lists about 20,000 reagents; this is an unselected part of those that have a named target and a result. In the full data, about 2,100 (10%) are marked active. 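Raw plate signals without normalisation; calls rest on control-based scores that were not deposited; replicate 2 separates called from uncalled poorly.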 Not stated in the record: the amount of reagent, the time to read-out.

- Purpose: 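Fly regulators or components of the CRAC channel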 (primary screen)
- Cell system: Drosophila S2R+ cells
- Reagents: long dsRNA against Drosophila genes
- Treatment: thapsigargin (2 µM) in calcium-free buffer to empty internal stores, then 2 mM calcium added back
- Measurement: 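Fluo-4 signal in 384-well plates read on a FLIPR after thapsigargin (2 µM, calcium-free) store depletion and 2 mM calcium add-back; unnormalised mean endpoint per well; screen run twice, selected wells retested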
- Direction: calcium signal and retest calcium signal: higher = more calcium entry after store depletion
- Call rule: 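About 1500 genes called as lowering calcium entry, by varying amounts, judged against per-plate control wells with STIM1 as positive and Rho1 as negative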
- Meaning of the calls: active = called as lowering calcium entry; inactive = not called

| predicted target | PubChem SID | calcium signal, replicate 1 | calcium signal, replicate 2 | retest calcium signal, replicate 1 | retest calcium signal, replicate 2 | outcome |
| --- | --- | --- | --- | --- | --- | --- |
| Mrm2 | SID104194102 | 181 | 126 | – | – | inactive |
| Ir52a | SID104186054 | 108 | 146 | – | – | inactive |
| CG42674 | SID104189858 | 86.6 | 150 | – | – | inactive |
| CG42674 | SID104189859 | 91.7 | 120 | – | – | inactive |
| CG42674 | SID104190603 | 104 | 131 | – | – | inactive |
| CG33655 | SID104183650 | 79.8 | 8719 | – | – | inactive |
| REG | SID104200065 | 161 | 84.7 | – | – | inactive |
| Acsx2 | SID104194100 | 161 | 152 | – | – | inactive |
| CG14626 | SID104198423 | 112 | 130 | – | – | inactive |
| CG31800 | SID104201968 | 112 | 86.1 | – | – | inactive |
| CG14881 | SID104194797 | 133 | 134 | – | – | inactive |
| MFS1 | SID104183907 | 144 | 184 | – | – | inactive |
| mEFTu2 | SID104185955 | 216 | 86.1 | – | – | inactive |
| CG5808 | SID104193916 | 159 | 225 | – | – | inactive |
| CG33012 | SID104186079 | 171 | 172 | – | – | inactive |
| CG33012 | SID104186080 | 158 | 212 | – | – | inactive |
| CG12517 | SID104181965 | 137 | 155 | – | – | inactive |
| CG32856 | SID104192916 | – | – | – | – | inactive |
| CG46441 | SID104195353 | 151 | 267 | – | – | inactive |
| CG18094 | SID104182447 | 67.6 | 154 | – | – | inactive |
| CG15628 | SID104180048 | 84.4 | 162 | – | – | inactive |
| CG15628 | SID104180255 | 189 | 134 | – | – | inactive |
| CG9114 | SID104199947 | 76.5 | 109 | – | – | inactive |
| 5PtaseI | SID104196061 | 186 | 325 | – | – | inactive |
| 5PtaseI | SID104201660 | 82 | 254 | – | – | inactive |
| CG14537 | SID104182187 | 73.9 | 114 | – | – | inactive |
| Paip2 | SID104194296 | 106 | 160 | – | – | inactive |
| RhoGAP92B | SID104194299 | 124 | 194 | – | – | inactive |
| RhoGAP92B | SID104195429 | 194 | 177 | – | – | inactive |
| Ir48c | SID104185946 | 79.9 | 202 | – | – | inactive |
| CG33284 | SID104202264 | 136 | 208 | – | – | inactive |

Just “calcium signal, replicate 1” (14 entries from above):
CG42674 [SID104189858] = 86.6
CG42674 [SID104189859] = 91.7
CG42674 [SID104190603] = 104
CG33655 [SID104183650] = 79.8
REG [SID104200065] = 161
Acsx2 [SID104194100] = 161
CG14626 [SID104198423] = 112
CG31800 [SID104201968] = 112
CG14881 [SID104194797] = 133
MFS1 [SID104183907] = 144
mEFTu2 [SID104185955] = 216
CG5808 [SID104193916] = 159
CG33012 [SID104186079] = 171
CG33012 [SID104186080] = 158

Continued:
| predicted target | PubChem SID | calcium signal, replicate 1 | calcium signal, replicate 2 | retest calcium signal, replicate 1 | retest calcium signal, replicate 2 | outcome |
| --- | --- | --- | --- | --- | --- | --- |
| CG4896 | SID104180463 | 144 | 300 | – | – | inactive |
| Sidpn | SID104181848 | 83.6 | 148 | – | – | inactive |
| Zn72D | SID104191110 | 129 | 74.7 | – | – | inactive |
| CG9427 | SID104196282 | 132 | 149 | – | – | inactive |
| CG31036 | SID104194847 | 153 | 155 | – | – | inactive |
| CG31036 | SID104194849 | 165 | 212 | – | – | inactive |
| Tsr1 | SID104191613 | 117 | 97.3 | – | – | inactive |
| CG14564 | SID104191517 | 99.2 | 177 | – | – | inactive |
| CG14564 | SID104201867 | 74.2 | 73.8 | – | – | inactive |
| RpS23 | SID104186961 | 154 | 142 | – | – | inactive |
| CG16790 | SID104194948 | 176 | 132 | – | – | inactive |
| fs(1)K10 | SID104198567 | 85 | 95.9 | – | – | inactive |
| lncRNA:CR30121 | SID104201212 | 111 | 112 | – | – | inactive |
| Kdm4A | SID104186378 | 163 | 212 | – | – | inactive |
| CG10352 | SID104199145 | 112 | 93.5 | – | – | inactive |
| Abp1 | SID104189485 | 58.1 | 119 | – | – | active |
| pbl | SID104191173 | 69.1 | 121 | – | – | active |
| CG32751 | SID104201436 | 124 | 80.6 | – | – | inactive |
| CG3061 | SID104195252 | 126 | 142 | – | – | inactive |
| c12.2 | SID104198543 | 81.7 | 82.7 | – | – | inactive |
| fest | SID104187141 | 110 | 107 | – | – | inactive |
| CG15021 | SID104188267 | 57 | 70.5 | 95.3 | 103 | inactive |
| Su(var)3-3 | SID104190042 | 165 | 93.7 | – | – | inactive |
| CG9988 | SID104196379 | 166 | 202 | – | – | inactive |
| CG3603 | SID104198109 | 91.3 | 123 | – | – | inactive |
| Nepl3 | SID104182473 | 80.2 | 141 | – | – | inactive |
| Gr64f | SID104188239 | 78.8 | 95.7 | – | – | inactive |
| Vav | SID104200176 | 118 | 79.3 | – | – | inactive |
| CG7029 | SID104195969 | 142 | 258 | – | – | inactive |
| CG8159 | SID104196184 | 91.2 | 130 | – | – | inactive |
| Snap25 | SID104201020 | 221 | 83 | – | – | inactive |
| Snap25 | SID104201028 | 148 | 117 | – | – | inactive |
| CG42675 | SID104191949 | 102 | 102 | – | – | inactive |
| CG42675 | SID104201506 | 93.9 | 147 | – | – | inactive |
| Ran-like | SID104190710 | 81 | 161 | – | – | active |
| Targ2 | SID104201580 | 81.9 | 139 | – | – | inactive |
| ClC-b | SID104187012 | 132 | 224 | – | – | inactive |
| CG7747 | SID104186830 | 164 | 98.8 | – | – | inactive |
| CG13643 | SID104194433 | 134 | 124 | – | – | inactive |
| CG13643 | SID104194434 | 122 | 136 | – | – | inactive |
| CG8673 | SID104182897 | 156 | 169 | – | – | inactive |
| CG12608 | SID104199264 | 119 | 95.7 | – | – | inactive |
| CG6324 | SID104199777 | 91.8 | 123 | – | – | inactive |
| Mtch | SID104188471 | 133 | 143 | – | – | inactive |
| CG11698 | SID104194147 | 114 | 132 | – | – | inactive |
| Edg84A | SID104192386 | 177 | 147 | – | – | inactive |
| CG8117 | SID104199874 | 67.1 | 117 | – | – | active |
| CG6576 | SID104190455 | 118 | 101 | – | – | inactive |
| Cdk12 | SID104191628 | 108 | 112 | – | – | inactive |
| Cdk12 | SID104202680 | 139 | 170 | – | – | inactive |
| CG1440 | SID104197707 | 247 | 110 | – | – | inactive |
| CG6766 | SID104182783 | 64 | 96.4 | 98.7 | 149 | active |
